Laboratory results from patent publication US20250090865A1, “LESIONAL DOSIMETRY FOR TARGETED RADIOTHERAPY OF CANCER” (Memorial Sloan-Kettering Cancer Center, priority 2021, published 2025).

Tested on: individual lesions of metastatic thyroid cancer
Description: Dosimetry and estimation of average lesion uptake. A workflow was established for four-time point measurement of individual lesion radioiodine kinetics to generate area under the curve (AUC) estimation for accurate determination of the radiation dose in Gray (Gy) to individual lesions in patients undergoing RAI therapy for DTC. Positron emission tomography (PET/CT) imaging was performed after oral administration of 222 MBq (6.0 mCi) of ^124I—NaI (3D Imaging, Waco, TX). Whole-body imaging was performed at 4, 24, 48, and 96 hours after oral administration of the radioactivity (FIG. 4). Regions of interest were obtained over all visible lesions >0.5 cm within the body and multiple parameters were obtained for later analysis. The following parameters were captured in a database for each patient and each lesion: size in three dimensions (cm); standardized uptake value (SUV), maximum and average; lean body weight; and activity concentration in microcurie/gram. (FIG. 9). For these patients, the best clearance fitting curve was estimated using a dual exponential equation model comprising lesion uptake and clearance. Prior to integration, clearance fitting was adjusted to replace the decay constant of ^124I with ^131I, the therapy isotope of interest, and then integrated to obtain the AUC. This AUC was multiplied by the equilibrium dose constant for the non-penetrating P-emissions of ^131I, yielding the lesion-absorbed dose in Gy.
Range of ^131I activity to treat a chosen efficacy rate for RAI in mDTC patients. A multi-disciplinary team of nuclear medicine specialists, endocrinologists, medical oncologists, and medical physicists met weekly to make treatment decisions based on the PET data generated, including data from the methods disclosed herein.
The target radiation dose of 2000 cGy was chosen because doses above this level are often used as the threshold for patients to receive further radioiodine treatment. Based on the PI now available for the AUC, a simple calculation of the relationship between ^124I and ^131I uptake can yield a PI for the dose [dlow−dhigh]. […] Thus, the higher boundary (dhigh) corresponds to the activity to treat 97.5% of the lesions with the given uptake. By varying this boundary, it is possible to select an activity that will target 95%, 90%, or fewer of the lesions. […]

[1] = 169 treated lesions, 15 treated patients

[131I-].[Na+] [^131I, Iodine-131]
treated lesions that received a dose greater than 2000 cGy (163 of 169 treated lesions): 96%
lesion dose, interquartile range [1]: 8551-52,921 cGy
lesion dose, range [1]: 163-906,218 cGy
median lesion dose [1]: 22,305 cGy
